These are yes or no findings as the source states them, for the method shown. Some binding calls cover weakened binding; strength is not graded here.
Target: DR5 (death receptor 5), endogenous in PA-1 cells (UniProt O14763)
Assay: IP of DR5 from PA-1 lysates, immunoblot for FADD

The chains behind the UniProt entries cited, without tags or fusion partners. Residues count along the entry.
UniProt O14763, residues 56-440: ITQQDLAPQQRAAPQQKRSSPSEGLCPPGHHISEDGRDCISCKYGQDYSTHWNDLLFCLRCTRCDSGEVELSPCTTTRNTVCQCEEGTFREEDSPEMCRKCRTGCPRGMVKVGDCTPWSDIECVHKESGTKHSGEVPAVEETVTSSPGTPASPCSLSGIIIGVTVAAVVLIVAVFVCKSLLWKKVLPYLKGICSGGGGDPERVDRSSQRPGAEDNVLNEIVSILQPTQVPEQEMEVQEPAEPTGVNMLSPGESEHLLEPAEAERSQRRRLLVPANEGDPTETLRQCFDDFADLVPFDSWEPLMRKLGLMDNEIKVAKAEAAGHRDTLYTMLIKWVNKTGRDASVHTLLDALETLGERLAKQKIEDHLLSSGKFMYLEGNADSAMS
UniProt Q13158: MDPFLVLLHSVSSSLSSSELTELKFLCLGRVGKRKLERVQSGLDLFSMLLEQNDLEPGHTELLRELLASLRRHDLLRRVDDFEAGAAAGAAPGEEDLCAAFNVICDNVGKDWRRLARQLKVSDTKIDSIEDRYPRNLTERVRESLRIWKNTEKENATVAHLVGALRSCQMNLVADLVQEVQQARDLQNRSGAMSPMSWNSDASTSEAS

For “FADD, endogenous (from UniProt Q13158 1-208)”, the binding was “binds”.

Reference: US20090075929A1
